Record: PubChem BioAssay AID1259424 (University of Nebraska Medical Center, 2018)

Purpose: 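Rank knockdowns across the genome by resemblance to the KSR1 depletion profile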 (primary screen)
Cells: human HCT116 colon cancer cells
Knock-down reagent: siRNA pool against human genes, 50 nM
Read-out: 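Log2 levels of six mRNAs (branched-DNA multiplex), adjusted by two reference genes and the non-targeting median, then scored against the average KSR1 knockdown pattern as Pearson r and euclidean distance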
Scale: mean correlation with KSR1 profile and KSR1 correlation: higher = expression change more like KSR1 knockdown; mean distance from KSR1 profile: higher = expression change less like KSR1 knockdown
This is one part, drawn at random, of about 14,000 reagents tested. 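Higher correlation or smaller distance means closer resemblance to KSR1 loss; control wells, including KSR1 knockdowns, recur on many plates.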 The record does not give: the time to read-out.

| target gene | mean correlation with KSR1 profile | mean distance from KSR1 profile | KSR1 correlation, replicate 1 | KSR1 correlation, replicate 2 | KSR1 correlation, replicate 3 |
| --- | --- | --- | --- | --- | --- |
| SEPSECS | -0.44 | 2.11 | -0.429 | -0.413 | -0.255 |
| HHIP | -0.248 | 2.62 | -0.408 | -0.536 | -0.29 |
| RFC1 | -0.0714 | 1.54 | -0.282 | -0.0935 | 0.346 |
| KRT4 | -0.621 | 2.02 | -0.621 | -0.681 | -0.51 |
| CLASP2 | 0.123 | 1.14 | 0.128 | -0.122 | 0.0735 |
| MLX | -0.344 | 2.32 | -0.159 | -0.326 | -0.227 |
| ALOX12 | -0.0764 | 1.95 | -0.0975 | -0.117 | -0.208 |
| ADAM29 | -0.224 | 3.01 | -0.254 | -0.17 | -0.314 |
| RELT | -0.617 | 2.31 | -0.619 | -0.646 | -0.533 |
| CGB3 | -0.00116 | 2.21 | -0.029 | -0.1 | -0.0744 |
| SCRN3 | 0.614 | 1.37 | 0.669 | 0.644 | 0.615 |
| TUBA1B | 0.0888 | 3.62 | 0.158 | 0.0861 | -0.268 |
| IFT27 | 0.0253 | 2.19 | 0 | 0.0606 | 0.0941 |
| SIT1 | -0.459 | 2.8 | -0.272 | -0.544 | -0.485 |
| NAT10 | -0.337 | 4.28 | -0.57 | -0.0178 | -0.337 |
| DFFB | -0.328 | 2.02 | -0.36 | -0.373 | -0.215 |
| PTX3 | -0.187 | 1.36 | -0.0896 | -0.25 | -0.201 |
| POLG | -0.15 | 1.75 | -0.292 | 0.0385 | -0.411 |
| CDK4 | 0.305 | 2 | 0.468 | 0.308 | -0.131 |
| MBNL1 | -0.52 | 2.8 | -0.575 | -0.387 | -0.526 |

2 entries from above, sorted by “mean distance from KSR1 profile”, ascending:
| target gene | mean correlation with KSR1 profile | mean distance from KSR1 profile | KSR1 correlation, replicate 1 | KSR1 correlation, replicate 2 | KSR1 correlation, replicate 3 |
| --- | --- | --- | --- | --- | --- |
| SEPSECS | -0.44 | 2.11 | -0.429 | -0.413 | -0.255 |
| HHIP | -0.248 | 2.62 | -0.408 | -0.536 | -0.29 |
